This passage reports binding results from patent US20140140998A1.

Amino acid sequences for entries named in this document (tags omitted). Residues count along the entry.
UniProt Q09472, residues 2-2414: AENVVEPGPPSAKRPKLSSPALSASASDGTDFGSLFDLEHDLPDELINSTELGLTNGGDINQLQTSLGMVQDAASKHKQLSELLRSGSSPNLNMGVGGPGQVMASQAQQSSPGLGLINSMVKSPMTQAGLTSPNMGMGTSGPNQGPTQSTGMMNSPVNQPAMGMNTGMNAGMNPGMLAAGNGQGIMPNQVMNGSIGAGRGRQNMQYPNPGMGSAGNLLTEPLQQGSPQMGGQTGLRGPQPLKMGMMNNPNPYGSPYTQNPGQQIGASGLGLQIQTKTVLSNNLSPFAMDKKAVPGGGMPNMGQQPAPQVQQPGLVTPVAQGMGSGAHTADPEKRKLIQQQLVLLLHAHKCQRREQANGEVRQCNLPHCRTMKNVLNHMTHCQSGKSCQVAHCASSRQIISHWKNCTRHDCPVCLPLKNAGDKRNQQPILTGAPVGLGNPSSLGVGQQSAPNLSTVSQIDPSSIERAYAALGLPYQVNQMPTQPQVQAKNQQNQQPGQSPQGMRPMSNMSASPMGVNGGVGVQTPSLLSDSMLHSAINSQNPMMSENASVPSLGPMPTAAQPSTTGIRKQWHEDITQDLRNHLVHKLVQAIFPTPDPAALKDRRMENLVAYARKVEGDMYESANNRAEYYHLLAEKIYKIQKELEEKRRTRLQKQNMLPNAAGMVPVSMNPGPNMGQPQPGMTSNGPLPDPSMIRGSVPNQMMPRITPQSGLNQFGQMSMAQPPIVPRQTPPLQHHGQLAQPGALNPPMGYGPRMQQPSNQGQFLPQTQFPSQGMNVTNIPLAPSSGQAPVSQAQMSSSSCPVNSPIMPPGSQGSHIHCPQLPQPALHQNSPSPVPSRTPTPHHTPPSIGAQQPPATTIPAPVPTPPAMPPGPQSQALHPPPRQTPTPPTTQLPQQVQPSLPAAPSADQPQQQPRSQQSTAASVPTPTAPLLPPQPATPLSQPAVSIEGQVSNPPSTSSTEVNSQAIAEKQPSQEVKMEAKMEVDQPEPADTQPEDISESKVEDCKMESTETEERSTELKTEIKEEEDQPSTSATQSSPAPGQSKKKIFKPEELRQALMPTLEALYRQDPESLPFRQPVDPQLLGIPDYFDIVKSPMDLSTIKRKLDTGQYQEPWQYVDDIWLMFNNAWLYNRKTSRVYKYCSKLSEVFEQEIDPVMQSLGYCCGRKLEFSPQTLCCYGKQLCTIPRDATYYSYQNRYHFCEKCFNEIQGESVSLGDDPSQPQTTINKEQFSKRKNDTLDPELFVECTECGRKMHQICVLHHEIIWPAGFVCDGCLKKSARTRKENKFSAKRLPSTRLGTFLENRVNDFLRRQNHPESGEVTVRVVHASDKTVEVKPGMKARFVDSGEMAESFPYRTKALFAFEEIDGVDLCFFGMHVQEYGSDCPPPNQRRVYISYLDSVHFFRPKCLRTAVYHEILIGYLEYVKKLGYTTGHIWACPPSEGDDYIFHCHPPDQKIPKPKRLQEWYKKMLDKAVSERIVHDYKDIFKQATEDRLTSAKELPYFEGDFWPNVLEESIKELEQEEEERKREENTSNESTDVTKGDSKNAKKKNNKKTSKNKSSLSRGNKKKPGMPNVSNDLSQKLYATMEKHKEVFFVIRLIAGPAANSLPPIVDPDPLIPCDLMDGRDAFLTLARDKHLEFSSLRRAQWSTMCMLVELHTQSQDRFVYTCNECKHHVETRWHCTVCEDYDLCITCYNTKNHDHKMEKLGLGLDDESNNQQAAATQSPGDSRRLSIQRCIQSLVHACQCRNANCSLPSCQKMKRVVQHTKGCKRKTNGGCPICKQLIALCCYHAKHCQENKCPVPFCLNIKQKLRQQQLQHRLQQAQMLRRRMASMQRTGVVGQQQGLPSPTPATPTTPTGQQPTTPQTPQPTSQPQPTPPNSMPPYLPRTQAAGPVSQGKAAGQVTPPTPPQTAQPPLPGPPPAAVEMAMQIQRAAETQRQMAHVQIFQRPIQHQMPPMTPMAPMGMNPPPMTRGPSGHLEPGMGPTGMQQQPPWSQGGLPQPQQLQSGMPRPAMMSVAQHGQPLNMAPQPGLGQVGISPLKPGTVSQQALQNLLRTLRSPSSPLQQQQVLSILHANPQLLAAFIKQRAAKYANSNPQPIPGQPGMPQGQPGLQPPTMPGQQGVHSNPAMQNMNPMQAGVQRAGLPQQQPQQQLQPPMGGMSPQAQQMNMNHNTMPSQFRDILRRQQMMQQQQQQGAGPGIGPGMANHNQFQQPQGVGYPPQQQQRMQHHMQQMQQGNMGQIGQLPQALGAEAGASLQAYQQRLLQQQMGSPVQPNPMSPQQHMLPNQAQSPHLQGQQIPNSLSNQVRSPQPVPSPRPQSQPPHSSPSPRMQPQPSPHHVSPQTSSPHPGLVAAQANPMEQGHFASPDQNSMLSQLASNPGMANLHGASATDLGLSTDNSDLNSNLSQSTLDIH

Test [1] addresses T1, TβRI intracellular domain fragment (TβRI ICD), about 34 kDa (human) (UniProt P36897).
T1 sequence: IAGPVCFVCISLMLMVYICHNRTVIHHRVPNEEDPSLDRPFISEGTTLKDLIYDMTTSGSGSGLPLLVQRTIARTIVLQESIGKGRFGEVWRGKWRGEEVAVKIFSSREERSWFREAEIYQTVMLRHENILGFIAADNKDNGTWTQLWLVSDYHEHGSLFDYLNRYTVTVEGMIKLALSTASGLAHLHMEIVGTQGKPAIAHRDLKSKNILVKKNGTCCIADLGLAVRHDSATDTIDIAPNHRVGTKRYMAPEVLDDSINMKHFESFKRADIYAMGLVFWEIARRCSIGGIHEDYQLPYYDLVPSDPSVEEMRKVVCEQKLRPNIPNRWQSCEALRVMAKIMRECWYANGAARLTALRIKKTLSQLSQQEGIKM
The experiment in a line: co-immunoprecipitation from PC-3U cells.

The target of test [2] is T2, type I receptor of transforming growth factor beta (TβRI), endogenous, full length (human) (UniProt P36897).
T2 sequence: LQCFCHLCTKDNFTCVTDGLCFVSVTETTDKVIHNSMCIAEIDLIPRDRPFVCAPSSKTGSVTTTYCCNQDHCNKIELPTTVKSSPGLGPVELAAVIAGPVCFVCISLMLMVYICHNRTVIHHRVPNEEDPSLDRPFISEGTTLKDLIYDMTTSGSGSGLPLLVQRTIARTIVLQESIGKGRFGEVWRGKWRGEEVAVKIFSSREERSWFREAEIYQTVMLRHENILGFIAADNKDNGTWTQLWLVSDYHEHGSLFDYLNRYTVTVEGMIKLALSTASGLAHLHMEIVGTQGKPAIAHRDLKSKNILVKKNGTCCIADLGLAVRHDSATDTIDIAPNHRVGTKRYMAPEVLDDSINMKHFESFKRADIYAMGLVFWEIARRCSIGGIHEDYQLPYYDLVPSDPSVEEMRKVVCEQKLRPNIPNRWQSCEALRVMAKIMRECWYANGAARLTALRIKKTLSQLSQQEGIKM
The experiment in a line: co-immunoprecipitation from PC-3U cells (IP V22, blot anti-p300).

No constants are given. Whether binding was seen depends on the method and setting. In cells and extracts the contact can be indirect. Some entries that bind do so weakly or less than the wild type.

“p300, endogenous (from UniProt Q09472 2-2414) (enzyme)”: the binding entry in test [1] and in test [2] was “binds” in each case.
